Reference: patent publication US20100240069A1, “Drug Discovery Assay for Modulators of HIF-Prolyl Hydroxylase Activity” (Boehringer Ingelheim International GmbH, priority 2009, published 2010)
At least one compound was matched to its structure with a doubt left.

Tested on: recombinant rhesus HPH protein
Experiment: Effect of additives on activity of recombinant rhesus HPH enzyme
Type: biochemical, rhesus monkey (Macaca mulatta)
Details: addition to recombinant rhesus HPH enzyme, isoform not stated

SMILES: O=C1O[C@H]([C@@H](O)CO)C(O)=C1O [ascorbate]
- effect on enzyme activity: increased the activity of the enzyme
